Measured values taken from PubChem BioAssay AID540256 (National Center for Advancing Translational Sciences (NCATS), 2011).
In all, about 300,000 compounds went through this assay and about 3,700 (1.2%) were called active. Inconclusive results, whose numbers are uncertain, are shown with a selection of clear calls. The call rests on the fitted dose curve; tested in HEK293 cells. A potency beside an inconclusive call is a rough fit, not a confirmed value.

Assay: qHTS for Inhibitors of binding or entry into cells for Lassa Virus; further: nearly all actives have a fitted effect of over 50% in size
Settings: Lassa virus pseudotype entry inhibition, cell reporter; activity change, negative = inhibition: at 37.9 µM (top of the series) unless noted
On the % scale 0 is the no-effect control and ±100 the full control effect; potency means the concentration at half of the fitted maximal effect.

| Structure (SMILES) | Potency | activity change, negative = inhibition |
| --- | --- | --- |
| CCCn1c(CN2CCN(C(C)=O)CC2)nc2cc(S(=O)(=O)N(C)C)ccc21 | inconclusive: 0.355 µM [inhibitor, partial curve, poor fit] |  |
| Cc1oc(-c2ccc3c(c2)OCCO3)cc1C(=O)NCC(=O)O | inconclusive: 35.5 µM [inhibitor, single point] |  |
| O=C(O)c1ccc(-n2nc(-c3ccccc3)c3ccccc3c2=O)cc1 | inconclusive: 4.47 µM [inhibitor, partial curve, poor fit] |  |
| COc1ccc(CCNC(=O)c2ccc3c(c2)N(Cc2cccc(C)c2)C(=O)c2ccccc2S3(=O)=O)cc1OC | inconclusive: 10 µM [inhibitor, partial curve] |  |
| CCC1CCCCN1CCCNC(=O)c1ccc(CS(=O)(=O)c2ccccc2OC)o1 (centres undefined) | inconclusive: 3.16 µM [activator, full curve, poor fit] |  |
| Cc1cc(/C=C2\C(=O)NC(=O)N(c3ccc(F)cc3)C2=O)c(C)n1-c1ccc(C(=O)O)cc1 |  | inconclusive: 4.78% [activator] |
| CC(=O)C1CCC2C3CCC4CC(=O)CCC4(C)C3C=CC12C (centres undefined) | inactive |  |
| CCOc1ccc(NC(=O)CN2CCCC2c2cccs2)cc1S(=O)(=O)N1CCCCC1 (centres undefined) | inconclusive: 35.5 µM [inhibitor, single point] |  |
| COc1ccc(CNCCSc2nnnn2-c2ccccc2)cc1 | inactive |  |
| O=C(c1cc(COc2c(F)cccc2F)on1)N1CCCCCC1 | inactive |  |
| CCn1cnc2c(oc3ccccc32)c1=O | inconclusive: 12.6 µM [activator, single point] |  |
| CCN(CC)CCCn1c(=S)[nH]c2ccccc2c1=O | inactive |  |
| CCc1ccc2c(c1)c1nnc(NN)nc1n2CC | inconclusive: 14.1 µM [inhibitor, single point] |  |
| COCCn1c(C)cc(C(=O)CSc2ccc(NC(C)=O)cc2)c1C | inactive |  |
| CCN1C(=O)N(C)C(c2ccccc2)C(C(=O)OC)=C1C (centres undefined) | inconclusive: 1.19 µM [inhibitor, single point] |  |
| Cc1cc(C(=O)N/N=C/c2ccc([N+](=O)[O-])s2)c2ccccc2n1 | inconclusive: 11.2 µM [inhibitor, single point] |  |
| O=C(CSc1ccc(Cl)cc1)Nn1cnnc1 | inactive |  |
| COc1ccc(CC(=O)Nc2ccc3nc(Nc4cccc(Cl)c4)cc(C)c3c2)cc1OC | inconclusive: 17.8 µM [inhibitor, single point] |  |
| CC(C)Nc1ccc(-n2nc3ccccc3[n+]2[O-])cc1 | inconclusive: 7.08 µM [inhibitor, partial curve, poor fit] |  |
| CC1(C)CN2C(=S)N(c3ccccc3)C(c3ccccc3)N2C1 (centres undefined) | inactive |  |
| O=C(NCC1CCCO1)C1CC(=O)N(C2CCCC2)C1 (centres undefined) | inconclusive: 0.0046 µM [activator, full curve, poor fit] |  |
| Cc1cccc(Cn2c(SCc3ccc(C(=O)N4CCCCCC4)cc3)nc3ccncc32)c1 | inconclusive: 10 µM [inhibitor, partial curve, poor fit] |  |

| Structure (SMILES) | Potency | activity change, negative = inhibition |
| --- | --- | --- |
| COc1cc(CN(C(=O)c2cc3ccccc3oc2=O)C2CCS(=O)(=O)C2)cc(OC)c1OC (centres undefined) | inactive |  |
| COc1ccc(C2c3ccc4ccccc4c3Oc3ncn(CCCN(C)C)c(=N)c32)cc1 (centres undefined) | inconclusive: 3.16 µM [inhibitor, partial curve, poor fit] |  |
| COC(=O)N/N=C(\C)c1ccco1 | inactive |  |
| Cc1cccc(NC(=O)c2cc(S(=O)(=O)N3CCCCC3)c[nH]2)c1C | inactive |  |
| COc1cccc(NC(=O)c2ccc3c(O)c(S(=O)(=O)c4ccccc4)c(=O)[nH]c3c2)c1 | inactive |  |
| O=C(CNC(=O)c1ccccc1Cl)OCc1cc(=O)n2ccsc2n1 | inactive |  |
| CCc1cc(C(=O)Cc2nc3ccccc3[nH]2)c(O)cc1O | inactive |  |
| CC(C)(C)c1ccc(-c2cc(-c3ccccc3O)[nH]n2)cc1 | inconclusive: 14.1 µM [inhibitor, single point] |  |
| COc1cccc(CNc2ncn[nH]2)c1OCc1ccccc1F | inactive |  |
| O=C(c1cccc(Cl)c1)n1nc(-c2ccco2)nc1NCc1cccs1 | inconclusive: 7.08 µM [activator, full curve, poor fit] |  |
| CCCn1nc(NC(=O)C2CCCO2)c2cc3cccc(C)c3nc21 (centres undefined) | inactive |  |
| Clc1ccc(CO/N=C2\CCCc3nonc32)cc1 | inconclusive: 1 µM [inhibitor, single point] |  |
| Cc1onc(-c2ccccc2Cl)c1C(=O)OCC(=O)c1c(N)n(C)c(=O)n(C)c1=O | inconclusive: 11.2 µM [inhibitor, partial curve, poor fit] |  |
| Cc1ccc(CCNC(=O)CCc2cn(Cc3ccccc3C)c3ccccc23)cc1 | inconclusive: 1.78 µM [inhibitor, full curve] |  |
| Cc1cc(C)cc(C(=O)N2CC(C)SC2=Nc2cccc(S(=O)(=O)N(C)C)c2)c1 (centres undefined) | inconclusive: 35.5 µM [inhibitor, single point] |  |
| CCOC(=O)c1c(Oc2ccc(C(=O)OC)cc2)nnc(-c2ccccc2)c1-c1ccccc1 | inconclusive: 7.08 µM [inhibitor, partial curve, poor fit] |  |
| Cn1nccc1C(=O)N1CCc2c([nH]c3ccccc23)C1c1ccc(F)cc1 (centres undefined) | inconclusive: 7.08 µM [inhibitor, full curve, poor fit] |  |
| C[N+](C)(C)CCC(=O)N1C/C(=C/c2ccccc2)C(=O)/C(=C\c2ccccc2)C1 | inconclusive: 20 µM [inhibitor, partial curve, poor fit] |  |
| Cc1cccc2cc(CN(Cc3nnnn3Cc3ccccc3)C3CCCC3)c(=O)[nH]c12 | inconclusive: 13 µM [inhibitor, partial curve, poor fit] |  |
| COC(=O)c1cc(NC(=O)c2ccc(OC)cc2)c(=O)oc1C | inactive |  |
| O=S(=O)(NCc1ccco1)c1cnc(Cl)c(Br)c1 | inconclusive: 29.1 µM [inhibitor, single point] |  |
| CCn1c(SCC(=O)Nc2cc(C)on2)nnc1-c1ccncc1 | inconclusive: 23.1 µM [activator, single point] |  |

Look-ups from above:
Under Potency, `COC(=O)c1cc(NC(=O)c2ccc(OC)cc2)c(=O)oc1C` has the entry inactive
Under Potency, `CCOC(=O)c1c(Oc2ccc(C(=O)OC)cc2)nnc(-c2ccccc2)c1-c1ccccc1` has the entry inconclusive: 7.08 µM [inhibitor, partial curve, poor fit]
